Publication PMC10368641, “Expulsion mechanism of the substrate-translocating subunit in ECF transporters” (Nature Communications, 2023)
These are yes or no findings as the source states them, for the method shown. In cells and extracts the contact can be indirect. Binding can be weak; no strength is given.

Chains of the proteins cited; added tags and fusions are not shown. Lines headed by an entry give the natural chain unless they say otherwise; changes in a name come on top.
UniProt Q1GBJ0: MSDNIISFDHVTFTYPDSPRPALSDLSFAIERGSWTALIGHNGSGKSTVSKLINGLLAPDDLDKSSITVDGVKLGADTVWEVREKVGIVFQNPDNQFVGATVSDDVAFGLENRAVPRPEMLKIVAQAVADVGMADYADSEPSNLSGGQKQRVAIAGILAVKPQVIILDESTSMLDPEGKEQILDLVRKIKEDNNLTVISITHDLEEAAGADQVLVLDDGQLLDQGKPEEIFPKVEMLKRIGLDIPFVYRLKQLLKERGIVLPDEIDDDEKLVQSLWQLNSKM
UniProt Q1GBI9: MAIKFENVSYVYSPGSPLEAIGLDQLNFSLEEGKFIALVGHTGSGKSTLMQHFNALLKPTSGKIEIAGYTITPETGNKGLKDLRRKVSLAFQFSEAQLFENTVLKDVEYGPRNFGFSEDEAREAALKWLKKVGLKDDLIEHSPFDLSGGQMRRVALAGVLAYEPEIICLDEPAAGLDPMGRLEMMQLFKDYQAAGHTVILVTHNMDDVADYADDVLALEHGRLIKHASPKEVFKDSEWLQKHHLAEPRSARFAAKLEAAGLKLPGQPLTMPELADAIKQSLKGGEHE

Molecular target: EcfA E169Q, Walker B mutant (tag removed) (L. delbrueckii) (UniProt Q1GBJ0)
Assay: co-purification (Nickel-Sepharose, on-column TEV release, SEC); single mutant solitary ECF modules from DDM-solubilised E. coli membrane vesicles, 4 °C; held by the His10 tag, released by TEV protease, Superdex 200 in 20 mM Tris pH 8.0, 150 mM NaCl, 0.017% DDM

EcfA’, ATPase subunit of the ECF module (from UniProt Q1GBI9)
binding: binds
